The text below walks through data of patent US4261884 (dated 1981).

This data set is described as follows: general procedure: solution-phase peptide synthesis; dehydro azlactone ring opening; isobutyl chloroformate/N-methylmorpholine mixed.

BOC-DAla-Gly-ΔPhe-Met NH2: for the setting “coupling step”, the step yield turned out to be 54%. Take H.Pro-ΔPhe-His-Leu.OH.2HBr.: the step yield (late stage modification step, 2HBr) was found to be 69%. Take N-carbobenzoxy-Gly-Gly- Phe-MetNH2: the step yield (coupling step) amounted to 60%. “S-Trityl-3-Mercaptopropanoyl-Prolyl-Δ-Phenylalanyl-Histidyl-Leucine.O” yielded a step yield (coupling step) of 68%. Regarding Z-Pro-ΔPhe-His-Leu-OCH3, the step yield by setting is: (coupling step, run 1) 84%; (coupling step, run 2) 76%. In the case of Z-Pro-ΔPhe-His-Leu.OH, the step yield by setting is: (coupling step) 81%; (late stage modification step) 64%.
